Assay results: US20130045962A1, “PEPTIDE DEFORMYLASE INHIBITORS” (priority 2007, published 2013)
Some of these results come from one statement about several compounds together.

Sequences of proteins named here, by UniProt entry; tags and fusion partners are left off. A change or cut given only in a name is not applied to a line headed by its entry.
UniProt P44786: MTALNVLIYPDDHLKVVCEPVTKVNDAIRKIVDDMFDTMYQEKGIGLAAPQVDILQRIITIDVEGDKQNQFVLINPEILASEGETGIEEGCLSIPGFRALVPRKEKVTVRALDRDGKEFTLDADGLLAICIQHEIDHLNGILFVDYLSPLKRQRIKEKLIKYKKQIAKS

Target: Haemophilus influenzae PDF (Haemophilus influenzae, UniProt P44786)
Test: PDF IC50 assay (FDH-coupled), H. influenzae PDF
Assay type: biochemical
Conditions: read-out: IC50, inhibition of H. influenzae PDF activity

SMILES | IC50 [nM]
Cc1nc(NNC(=O)[C@H](CC2CCCC2)CN(O)C=O)c(F)c(N2C[C@@H]3OCO[C@@H]3C2)n1 [Example 87, ((2R)-2-(Cyclopentylmethyl)-3-{2-[5-fluoro-2-methyl-6-(tetrahydro-5H-[1,3]dioxolo[4,5-c]pyrrol-5-yl)-4-pyrimidinyl]hydrazino}-3-oxopropyl)hydroxyformamide] | ≤ 100
CN(C)c1nc(Cl)nc(NNC(=O)[C@H](CC2CCCC2)CN(O)C=O)c1F [Example 88, [(2R)-3-{2-[2-Chloro-6-(dimethylamino)-5-fluoro-4-pyrimidinyl]hydrazino}-2-(cyclopentylmethyl)-3-oxopropyl]hydroxyformamide] | ≤ 100
C[C@@H]1CN(c2nc(C(F)F)nc(NNC(=O)[C@H](CC3CCCC3)CN(O)C=O)c2F)C[C@H]1N(C)C [Example 91, [(2R)-2-(Cyclopentylmethyl)-3-(2-{2-(difluoromethyl)-6-[(trans)-3-(dimethylamino)-4-methyl-1-pyrrolidinyl]-5-fluoro-4-pyrimidinyl}hydrazino)-3-oxopropyl]hydroxyformamide] | ≤ 100
C[C@@H]1CN(c2nc(C(F)F)nc(NNC(=O)[C@H](CC3CCCC3)CN(O)C=O)c2F)CCN1C [Example 93, [(2R)-2-(Cyclopentylmethyl)-3-(2-{2-(difluoromethyl)-6-[(3R)-3,4-dimethyl-1-piperazinyl]-5-fluoro-4-pyrimidinyl}hydrazino)-3-oxopropyl]hydroxyformamide] | ≤ 100
Cc1nc(NNC(=O)[C@H](CC2CCCC2)CN(O)C=O)c(F)c(N[C@H]2CC=CCN(C)C2=O)n1 [Example 94, {(2R)-2-(Cyclopentylmethyl)-3-[2-(5-fluoro-2-methyl-6-{[(3S)-1-methyl-2-oxo-2,3,4,7-tetrahydro-1H-azepin-3-yl]amino}-4-pyrimidinyl)hydrazino]-3-oxopropyl}hydroxyformamide] | ≤ 100
C[C@H]1CN(c2nc(C(F)F)nc(NNC(=O)[C@H](CC3CCCC3)CN(O)C=O)c2F)CCN1C [Example 95, [(2R)-2-(Cyclopentylmethyl)-3-(2-{2-(difluoromethyl)-6-[(3S)-3,4-dimethyl-1-piperazinyl]-5-fluoro-4-pyrimidinyl}hydrazino)-3-oxopropyl]hydroxyformamide] | ≤ 100
C[C@H]1CN(C)CCN1c1nc(C(F)F)nc(NNC(=O)[C@H](CC2CCCC2)CN(O)C=O)c1F [Example 96, [(2R)-2-(Cyclopentylmethyl)-3-(2-{2-(difluoromethyl)-6-[(2S)-2,4-dimethyl-1-piperazinyl]-5-fluoro-4-pyrimidinyl}hydrazino)-3-oxopropyl]hydroxyformamide] | ≤ 100
Cc1nc(NNC(=O)[C@H](CC2CCCC2)CN(O)C=O)c(F)c(N2CCN(C)[C@@H](C)C2)n1 [Example 97, [(2R)-2-(Cyclopentylmethyl)-3-(2-{6-[(3S)-3,4-dimethyl-1-piperazinyl]-5-fluoro-2-methyl-4-pyrimidinyl}hydrazino)-3-oxopropyl]hydroxyformamide] | ≤ 100
Cc1nc(NNC(=O)[C@H](CC2CCCC2)CN(O)C=O)c(F)c(N2CCN(C)[C@H](C)C2)n1 [Example 98, [(2R)-2-(Cyclopentylmethyl)-3-(2-{6-[(3R)-3,4-dimethyl-1-piperazinyl]-5-fluoro-2-methyl-4-pyrimidinyl}hydrazino)-3-oxopropyl]hydroxyformamide] | ≤ 100
Cc1nc(NNC(=O)[C@H](CC2CCCC2)CN(O)C=O)c(F)c(N2C[C@H]3COC[C@H]3C2)n1 [Example 99, ((2R)-2-(Cyclopentylmethyl)-3-{2-[5-fluoro-2-methyl-6-(tetrahydro-1H-furo[3,4-c]pyrrol-5(3H)-yl)-4-pyrimidinyl]hydrazino}-3-oxopropyl)hydroxyformamide] | ≤ 100
CCc1nc(NNC(=O)[C@H](CC2CCCC2)CN(O)C=O)c(F)c(N2C[C@H](C)[C@@H](N(C)C)C2)n1 [Example 100, [(2R)-2-(Cyclopentylmethyl)-3-(2-{6-[(3R,4S)-3-(dimethylamino)-4-methyl-1-pyrrolidinyl]-2-ethyl-5-fluoro-4-pyrimidinyl}hydrazino)-3-oxopropyl]hydroxyformamide] | ≤ 100
CCc1nc(NNC(=O)[C@H](CC2CCCC2)CN(O)C=O)c(F)c(N2C[C@@H](C)[C@H](N(C)C)C2)n1 [Example 101, [(2R)-2-(Cyclopentylmethyl)-3-(2-{6-[(3S,4R)-3-(dimethylamino)-4-methyl-1-pyrrolidinyl]-2-ethyl-5-fluoro-4-pyrimidinyl}hydrazino)-3-oxopropyl]hydroxyformamide] | ≤ 100
Cc1nc(NNC(=O)[C@H](CC2CCCC2)CN(O)C=O)c(F)c(N2C[C@H](CO)[C@@H](C)C2)n1 [Example 102, [(2R)-3-(2-{2-Chloro-5-fluoro-6-[(trans)-3-(hydroxymethyl)-4-methyl-1-pyrrolidinyl]-4-pyrimidinyl}hydrazino)-2-(cyclopentylmethyl)-3-oxopropyl]hydroxyformamide] | ≤ 100
Cc1nc(NCc2ccccn2)c(F)c(NNC(=O)[C@H](CC2CCCC2)CN(O)C=O)n1 [Example 103, [(2R)-2-(Cyclopentylmethyl)-3-(2-{5-fluoro-2-methyl-6-[(2-pyridinylmethyl)amino]-4-pyrimidinyl}hydrazino)-3-oxopropyl]hydroxyformamide] | ≤ 100
CCc1nc(NNC(=O)[C@H](CC2CCCC2)CN(O)C=O)c(F)c(N2CCN3CCC[C@H]3C2)n1 [Example 104, [(2R)-2-(Cyclopentylmethyl)-3-(2-{2-ethyl-5-fluoro-6-[(8aS)-hexahydropyrrolo[1,2-a]pyrazin-2(1H)-yl]-4-pyrimidinyl}hydrazino)-3-oxopropyl]hydroxyformamide] | ≤ 100
Cc1nc(NNC(=O)[C@H](CC2CCCC2)CN(O)C=O)c(F)c(N(C)Cc2ccncc2)n1 [Example 105, [(2R)-2-(Cyclopentylmethyl)-3-(2-{5-fluoro-2-methyl-6-[methyl(4-pyridinylmethyl)amino]-4-pyrimidinyl}hydrazino)-3-oxopropyl]hydroxyformamide] | ≤ 100
O=CN(O)C[C@@H](CC1CCCC1)C(=O)NNc1nc(C(F)F)nc(N2CCN3CCC[C@H]3C2)c1F [Example 106, [(2R)-2-(Cyclopentylmethyl)-3-(2-{2-(difluoromethyl)-5-fluoro-6-[(8aS)-hexahydropyrrolo[1,2-a]pyrazin-2(1H)-yl]-4-pyrimidinyl}hydrazino)-3-oxopropyl]hydroxyformamide] | ≤ 100
Cc1nc(NCc2nccs2)c(F)c(NNC(=O)[C@H](CC2CCCC2)CN(O)C=O)n1 [Example 107, N-[(2R)-2-(Cyclopentylmethyl)-3-(2-{5-fluoro-2-methyl-6-[(1,3-thiazol-2-ylmethyl)amino]-4-pyrimidinyl}hydrazino)-3-oxopropyl]-N-hydroxyformamide] | ≤ 100
Cc1nc(NNC(=O)[C@H](CC2CCCC2)CN(O)C=O)c(F)c(N2CCN(C)C[C@@H]2C)n1 [Example 108, [(2R)-2-(Cyclopentylmethyl)-3-(2-{6-[(2S)-2,4-dimethyl-1-piperazinyl]-5-fluoro-2-methyl-4-pyrimidinyl}hydrazino)-3-oxopropyl]hydroxyformamide] | ≤ 100
Cc1nc(NNC(=O)[C@H](CC2CCCC2)CN(O)C=O)c(F)c(N2CCN(C)C[C@H]2C)n1 [Example 109, [(2R)-2-(Cyclopentylmethyl)-3-(2-{6-[(2R)-2,4-dimethyl-1-piperazinyl]-5-fluoro-2-methyl-4-pyrimidinyl}hydrazino)-3-oxopropyl]hydroxyformamide] | ≤ 100
CSc1nc(NNC(=O)[C@H](CC2CCCC2)CN(O)C=O)c(F)c(N2C[C@@H](C)[C@H](N(C)C)C2)n1 [Example 110, ((2R)-2-(Cyclopentylmethyl)-3-{2-[6-[(3S,4R)-3-(dimethylamino)-4-methyl-1-pyrrolidinyl]-5-fluoro-2-(methylthio)-4-pyrimidinyl]hydrazino}-3-oxopropyl)hydroxyformamide] | ≤ 100
CSc1nc(NNC(=O)[C@H](CC2CCCC2)CN(O)C=O)c(F)c(N2CCN3CCC[C@H]3C2)n1 [Example 111, ((2R)-2-(Cyclopentylmethyl)-3-{2-[5-fluoro-6-[(8aS)-hexahydropyrrolo[1,2-a]pyrazin-2(1H)-yl]-2-(methylthio)-4-pyrimidinyl]hydrazino}-3-oxopropyl)hydroxyformamide] | ≤ 100
CN(C)C1CN(c2nc(Cl)nc(NNC(=O)[C@H](CC3CCCC3)CN(O)C=O)c2F)CC1N(C)C (stereo partly drawn) [Example 113, [(2R)-3-(2-{6-[Syn-3,4-bis(dimethylamino)-1-pyrrolidinyl]-2-chloro-5-fluoro-4-pyrimidinyl}hydrazino)-2-(cyclopentylmethyl)-3-oxopropyl]hydroxyformamide] | ≤ 100
CC1(C)CN(c2nc(Cl)nc(NNC(=O)[C@H](CC3CCCC3)CN(O)C=O)c2F)C[C@H]1O [Example 115, [(2R)-3-(2-{2-Chloro-5-fluoro-6-[(4S)-4-hydroxy-3,3-dimethyl-1-pyrrolidinyl]-4-pyrimidinyl}hydrazino)-2-(cyclopentylmethyl)-3-oxopropyl]hydroxyformamide] | ≤ 100
Cc1nc(NNC(=O)[C@H](CC2CCCC2)CN(O)C=O)c(F)c(N2C[C@@H](O)C(C)(C)C2)n1 [Example 116, [(2R)-2-(Cyclopentylmethyl)-3-(2-{5-fluoro-6-[(4S)-4-hydroxy-3,3-dimethyl-1-pyrrolidinyl]-2-methyl-4-pyrimidinyl}hydrazino)-3-oxopropyl]hydroxyformamide] | ≤ 100
C[C@@H]1CN(C)CCN1c1nc(CF)nc(NNC(=O)[C@H](CC2CCCC2)CN(O)C=O)c1F [Example 117, ((2R)-2-(Cyclopentylmethyl)-3-{2-[6-[(2R)-2,4-dimethyl-1-piperazinyl]-5-fluoro-2-(fluoromethyl)-4-pyrimidinyl]hydrazino}-3-oxopropyl)hydroxyformamide] | ≤ 100
CN(C)[C@@H]1CCCN(c2nc(Cl)nc(NNC(=O)[C@H](CC3CCCC3)CN(O)C=O)c2F)C1 [Example 118, [(2R)-3-(2-{2-Chloro-6-[(3R)-3-(dimethylamino)-1-piperidinyl]-5-fluoro-4-pyrimidinyl}hydrazino)-2-(cyclopentylmethyl)-3-oxopropyl]hydroxyformamide] | ≤ 100
